Test: Singlet oxygen yield determination under illumination (DPBF, methylene blue as reference)
Type: physicochemical
Details: methanol, xenon lamp 660 nanometers

SMILES | singlet oxygen photon yield
CC/N=c1/cc2[te]c3c4c5c(cc3nc-2c2ccccc12)CCCN5CCC4 [Compound F-3] | about 0.73
CC/N=c1/cc2[se]c3c4c5c(cc3nc-2c2ccccc12)CCCN5CCC4 [Compound F-2] | about 0.47
CC/N=c1/cc2sc3c4c5c(cc3nc-2c2ccccc12)CCCN5CCC4 [Compound F-1] | about 0.018
